Where two headings read alike, the source gives them in different places.
How the values were obtained:
in vitro = conditions: human
rLUJV/ZsG = assay: microbe, parasite or virus in culture; format: cell-based, Lujo virus

## CCCCc1oc2ccccc2c1C(=O)c1cc(I)c(OCCN(CC)CC)c(I)c1 [Amiodarone]
In vitro
  viability at 0.05 µM: 132%
  viability at 0.5 µM: 145%
  viability at 5 µM: 86%
rLUJV/ZsG
  SI (selectivity index, CC50 divided by EC50): 2.8
rLUJV/ZsG; Mammarenavirus lujoense, Huh-7, read-out: EC50 (concentration inhibiting ZsG expression by 50%)
  EC50: 4.9 ± 0.51 µM
rLUJV/ZsG; read-out: EC50 (concentration inhibiting ZsG expression by 50%)
  EC50: 4.9 ± 0.513 µM

Source: PMC8310135 (Viruses, 2021)
